The other results are listed elsewhere or left out.

Amino acid sequences for entries named in this document (tags omitted).
UniProt Q0JBA9, entry or part of it: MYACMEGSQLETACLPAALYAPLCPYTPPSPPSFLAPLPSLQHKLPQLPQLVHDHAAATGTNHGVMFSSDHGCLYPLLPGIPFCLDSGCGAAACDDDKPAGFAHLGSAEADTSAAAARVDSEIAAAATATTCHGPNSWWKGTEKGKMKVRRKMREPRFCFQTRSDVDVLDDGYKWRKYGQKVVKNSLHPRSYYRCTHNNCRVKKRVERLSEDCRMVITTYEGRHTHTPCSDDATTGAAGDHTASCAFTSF

Consider 42 sequences from publication PMC7819943, “Rice protein-binding microarrays: a tool to detect cis-acting elements near promoter regions in rice”.

The target in the experiment is OsWRKY34 (Oryza sativa, UniProt Q0JBA9 1-250). Kind of experiment: protein-binding microarray (RPBM); PBS, 2% BSA, 51.3 ng/ul salmon testes DNA, 50 uM zinc acetate, 200 nM TF, 25 C, 1 h; high values mean tight binding. The note with it: protein: recombinant; tags: N-terminal polyhistidine and DsRed monomer fusion (pET32a); label: CyDye5-dUTP incorporated in the synthesized complementary strand; 3' TTTTT single-stranded linker to array surface; dsDNA, one strand shown. Summed up:
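A custom Agilent array was converted to double-stranded form by primer extension with Cy5-dUTP and blocked with 2% BSA. Protein at 200 nM in PBS with 2% BSA, salmon testes DNA and 50 µM zinc acetate was applied for 1 h at 25 °C, followed by washing. The proteins were polyhistidine–DsRed N-terminal fusions of transcription factors, expressed in E. coli BL21-CodonPlus and Ni–NTA-purified. The binding signal is per-feature fluorescence intensity (arbitrary units) from an Axon 4000B scanner.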
Regarding “ATCTACTACACACATGACACATTCCCATCTTTCCAATGTCCGGAGTCACCTAGTGCAG”, the binding signal is 10700 fluorescence intensity (a.u.).
The same measure for “TTGTTTAACACCAAGGCTCTGTTCGTTCTCTCCCAGTTGGCGGAGTCACCTAGTGCAG”: 9110 fluorescence intensity (a.u.).
The same measure for “GCGGCCATCTTCTCGCTCGATCTCCCGCTCCCGCGGAACCCGGAGTCACCTAGTGCAG”: 9140 fluorescence intensity (a.u.).
Consider “AAAATCCAGCTGCCTCGAGCTCCTTTTCCGTTTCTTTCCCCGGAGTCACCTAGTGCAG”, for which the binding signal is 8470 fluorescence intensity (a.u.).
For the sequence “TTTAATAAGCGACGGTCTTTGACTTTTCGACATATGTCTGCGGAGTCACCTAGTGCAG”, the binding signal is 10100 fluorescence intensity (a.u.).
The value for “CGGAGGCGAGTGGGTGGGTGGTGGTCCAGTGCGGTGGTGCCGGAGTCACCTAGTGCAG” was 9800 fluorescence intensity (a.u.).
The same measure for “ATTTCTGCTACTATTTTCGAAATATGTTATTATTTTCATTCGGAGTCACCTAGTGCAG”: 9110 fluorescence intensity (a.u.); for “GTCCATGGGTCGCTTCCTGGCCGAGGCTACCGTCGTCGCACGGAGTCACCTAGTGCAG”: 8930 fluorescence intensity (a.u.); for “CTACTTCATTTTACACTTGCTGCTTTAATTTATTTACCTTCGGAGTCACCTAGTGCAG”: 11900 fluorescence intensity (a.u.).
The same measure for “CCGCGCCGCTCTGCCGTCCCAGCCATCGCCGCCGCCCGCACGGAGTCACCTAGTGCAG”: 8200 fluorescence intensity (a.u.).
As to “GATAGATTTGTAGTTGTACATTTAGTGTAGTTAAGTTGTACGGAGTCACCTAGTGCAG”, the binding signal is 8040 fluorescence intensity (a.u.).
The value for “ATTCTATACTTTTGTTTCCCTATCATTTGACGCTTTACACCGGAGTCACCTAGTGCAG” was 10000 fluorescence intensity (a.u.).
The value for “CAATCTTCTTGGTACTTCACTTCCACCACTGCTCCTTTCTCGGAGTCACCTAGTGCAG” was 12500 fluorescence intensity (a.u.).
The same measure for “CAACGGCGAGGATGGCTTGCATGCGGCGGTGGCGGGAGGGCGGAGTCACCTAGTGCAG”: 8910 fluorescence intensity (a.u.); for “GGGTTGTGGTTGTTGTACGTTGTTGTTGACGGCGATGGTTCGGAGTCACCTAGTGCAG”: 12000 fluorescence intensity (a.u.); for “ATGATATATGCTTATCCAAACACCACCAAGGGCATCATGACGGAGTCACCTAGTGCAG”: 8230 fluorescence intensity (a.u.).
As for “TGTTCTGCTGCCTCGAGCCCCGCCCCGCCATCCTACTGCTCGGAGTCACCTAGTGCAG”, the binding signal was 8040 fluorescence intensity (a.u.).
As for “GAACTTCGCCGCTGCCCTACTCGAGGTCTTCCTCTCCACCCGGAGTCACCTAGTGCAG”, the binding signal is 8210 fluorescence intensity (a.u.).
Regarding “TCCTCCCTTTTGCGGCTTGCGAATGTCAACACACTGTTTTCGGAGTCACCTAGTGCAG”, the binding signal was 9910 fluorescence intensity (a.u.).
“CTAATGTATGTTCAGGTGTACGCATGGATCCTAATGCGAACGGAGTCACCTAGTGCAG”: the binding signal was 8620 fluorescence intensity (a.u.).
The same measure for “TCCGTAAATCCAACATGGCACTATTACCGCCGGCTTAAATCGGAGTCACCTAGTGCAG”: 56000 fluorescence intensity (a.u.).
The value for “GGTGGTGGTGGTGGTGGTGGTGGTGTAGGAGGAGGAGGAGCGGAGTCACCTAGTGCAG” was 27600 fluorescence intensity (a.u.).
The value for “GCCCACCGTTCATGGTCATAGGCCACCTGTTGCCTTCACACGGAGTCACCTAGTGCAG” was 9190 fluorescence intensity (a.u.).
For the sequence “TTTGACTTTTGAGGTTTTGCCCTTCTGATCAGACCGCACTCGGAGTCACCTAGTGCAG”, the binding signal is 8070 fluorescence intensity (a.u.).
As for “GGCTTTGACTTCTCACCATAGAAGAACCTTCTCATGGTCGCGGAGTCACCTAGTGCAG”, the binding signal was 8490 fluorescence intensity (a.u.).
The same measure for “CGCCGCTGCTCTCGTTGTTGTCCCGCTGCGGCGCTGTGGTCGGAGTCACCTAGTGCAG”: 12800 fluorescence intensity (a.u.); for “ACTACTCCCACCTCGCCGCCCGCCGCCGCCGCCGCCGGGTCGGAGTCACCTAGTGCAG”: 8240 fluorescence intensity (a.u.).
The same measure for “GTACTCCTGGTCCGCATCCACCGTCCATCCGCGTACCGCACGGAGTCACCTAGTGCAG”: 11000 fluorescence intensity (a.u.).
The same measure for “CCTATATTTAATACTTCATGCATGTGTTCAAACGTTCGATCGGAGTCACCTAGTGCAG”: 8890 fluorescence intensity (a.u.); for “CTCCTCAACAACACTCTCAGGTCAATCTCGGCCGACCCAACGGAGTCACCTAGTGCAG”: 8610 fluorescence intensity (a.u.).
For “TCATCTCATCTCTCTCGTTTTTATATGCACGTTTTTCAAACGGAGTCACCTAGTGCAG”, the binding signal is 9530 fluorescence intensity (a.u.).
On to “CGCGCCCCGCCGCCACCATCCGCATCCACCATTCCATTCACGGAGTCACCTAGTGCAG”, for which the binding signal was 8880 fluorescence intensity (a.u.).
Turning to “GGGGTGGCGGGGACGGGAAAGGAAATCTTGTAGACTGCGTCGGAGTCACCTAGTGCAG”, the binding signal is 8380 fluorescence intensity (a.u.).
The same measure for “TTCTTTCGGTTTTTTTAATCCATTTTGCAACACTCTCTGTCGGAGTCACCTAGTGCAG”: 12900 fluorescence intensity (a.u.); for “ATTTGTTCGGTCTTTCTCTCATCCCTACATATGGCATTCACGGAGTCACCTAGTGCAG”: 8070 fluorescence intensity (a.u.); for “TCTTCGTACTCGCCTCTCTCCGCGCCCTCCTCCGCCGCCGCGGAGTCACCTAGTGCAG”: 12600 fluorescence intensity (a.u.).
The value for “ACTTATTTTCCTTTTTTGGGGTTGCCTCTTGCAGTTCATCCGGAGTCACCTAGTGCAG” was 8930 fluorescence intensity (a.u.).
“CTTTTTTTTTTCTTTGTTTCTTGTCCCCAGGCAATGACCGCGGAGTCACCTAGTGCAG”: the binding signal is 9410 fluorescence intensity (a.u.).
The value for “TGCAAGTTTGTTTTCACTCATCTTATTTGTTTAGGTTTGTCGGAGTCACCTAGTGCAG” was 12400 fluorescence intensity (a.u.).
The same measure for “GTCGATATGTTTGTAGTAATTTTTTTTGTGCTTCCTTTATCGGAGTCACCTAGTGCAG”: 10100 fluorescence intensity (a.u.).
The value for “GTTTGTCACTCCTGTCAATTGTTCATCCACTCCATTGATTCGGAGTCACCTAGTGCAG” was 13100 fluorescence intensity (a.u.).
Turning to “TTGAGGGTGGGTTTCAGAGGTGTGGGAGGTCGCCTCCATGCGGAGTCACCTAGTGCAG”, the binding signal is 9420 fluorescence intensity (a.u.).
